The target of the test is T1, Flag-RIG-I S144F variant (human) (UniProt O95786).
T1 sequence: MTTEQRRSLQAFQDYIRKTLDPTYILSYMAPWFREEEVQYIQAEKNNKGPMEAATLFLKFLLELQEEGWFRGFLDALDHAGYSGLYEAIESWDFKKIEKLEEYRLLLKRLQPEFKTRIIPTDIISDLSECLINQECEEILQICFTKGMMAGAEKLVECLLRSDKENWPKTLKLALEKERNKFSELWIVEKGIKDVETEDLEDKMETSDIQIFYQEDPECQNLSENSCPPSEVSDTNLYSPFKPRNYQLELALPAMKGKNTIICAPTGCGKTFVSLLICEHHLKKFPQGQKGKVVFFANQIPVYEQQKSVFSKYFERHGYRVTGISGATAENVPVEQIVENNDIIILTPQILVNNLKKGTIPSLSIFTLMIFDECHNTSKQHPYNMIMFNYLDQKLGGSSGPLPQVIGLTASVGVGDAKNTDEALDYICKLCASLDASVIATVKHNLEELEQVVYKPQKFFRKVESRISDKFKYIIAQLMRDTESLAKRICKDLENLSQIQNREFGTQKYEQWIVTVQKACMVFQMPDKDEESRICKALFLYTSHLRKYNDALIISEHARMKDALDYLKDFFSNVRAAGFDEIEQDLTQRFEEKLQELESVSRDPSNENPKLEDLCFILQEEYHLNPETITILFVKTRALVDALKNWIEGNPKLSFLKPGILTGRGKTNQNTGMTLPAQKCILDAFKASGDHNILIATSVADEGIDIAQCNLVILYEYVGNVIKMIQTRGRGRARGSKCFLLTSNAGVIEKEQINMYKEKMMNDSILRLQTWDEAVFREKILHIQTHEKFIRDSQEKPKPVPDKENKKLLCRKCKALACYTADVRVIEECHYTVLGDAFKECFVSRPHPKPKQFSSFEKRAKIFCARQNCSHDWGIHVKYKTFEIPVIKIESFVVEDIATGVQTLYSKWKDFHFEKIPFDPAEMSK
Description: co-IP; HEK293T cells transfected with Flag-RIG-I WT or Flag-RIG-I S144F, followed by intracellular poly(I:C) stimulation; endogenous TRIM25 and TRIM4 examined.

The chains behind the UniProt entries cited, without tags or fusion partners.
UniProt Q14258: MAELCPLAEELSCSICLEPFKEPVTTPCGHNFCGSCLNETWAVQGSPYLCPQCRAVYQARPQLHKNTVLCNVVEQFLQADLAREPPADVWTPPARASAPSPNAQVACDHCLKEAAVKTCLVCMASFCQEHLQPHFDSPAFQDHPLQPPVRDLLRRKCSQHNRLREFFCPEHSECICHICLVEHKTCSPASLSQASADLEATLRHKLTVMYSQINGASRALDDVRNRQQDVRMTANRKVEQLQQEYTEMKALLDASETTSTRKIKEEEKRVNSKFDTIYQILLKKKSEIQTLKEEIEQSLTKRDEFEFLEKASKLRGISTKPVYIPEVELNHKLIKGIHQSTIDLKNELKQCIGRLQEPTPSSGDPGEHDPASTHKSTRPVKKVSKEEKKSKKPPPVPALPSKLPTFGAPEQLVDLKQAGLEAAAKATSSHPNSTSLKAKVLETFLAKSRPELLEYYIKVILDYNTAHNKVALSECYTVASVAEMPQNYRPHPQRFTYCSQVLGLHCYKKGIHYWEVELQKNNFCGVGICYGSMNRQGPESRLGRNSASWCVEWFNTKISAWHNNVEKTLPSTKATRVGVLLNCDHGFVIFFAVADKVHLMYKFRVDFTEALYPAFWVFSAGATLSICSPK

These are yes or no findings as the source states them, for the method shown. Binding seen in cells or lysates may run through a third protein. Some entries that bind do so weakly or less than the wild type. Tags and fused reporters may be left off the sequences shown.

Here are results for one substance from article PMC13011034.

On to “TRIM25 (E3 ligase) (from UniProt Q14258 1-630)”, for which the binding result was “binds”.
